{
  "source": "the supplement of paper PMC8728848",
  "assay_in_all_cases": "glycan array binding signal (z-score within array); higher = stronger binding",
  "settings_in_all_cases": "glycan notation: IUPAC condensed, linker removed",
  "key": {"[1]": {"target": "Gal(b1-4)GlcNAc(b1-3)Gal(b1-4)GlcNAc(b1-2)Man(a1-3)[Gal(b1-4)GlcNAc(b1-3)Gal(b1-4)GlcNAc(b1-2)Man(a1-6)]Man(b1-4)GlcNAc(b1-4)[Fuc(a1-6)]GlcNAc", "method_in_brief": "(§1)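 Arrays were curated from the Consortium for Functional Glycomics database, 3228 in total, and kept only where the protein sequence was available. Binding is expressed as a within-array Z-score. This score was averaged across arrays of the same protein sequence at different concentrations or buffers and across linkers, and negative values can be read as non-binding.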"}, "[2]": {"target": "Gal(b1-4)GlcNAc(b1-3)Gal(b1-4)GlcNAc(b1-2)[Gal(b1-4)GlcNAc(b1-3)Gal(b1-4)GlcNAc(b1-6)]Man(a1-6)[Gal(b1-4)GlcNAc(b1-3)Gal(b1-4)GlcNAc(b1-2)Man(a1-3)]Man(b1-4)GlcNAc(b1-4)GlcNAc", "method_in_brief": "as §1"}, "[3]": {"target": "Gal(b1-4)GlcNAc(b1-3)Gal(b1-4)GlcNAc(b1-2)[Gal(b1-4)GlcNAc(b1-3)Gal(b1-4)GlcNAc(b1-6)]Man(a1-6)[Gal(b1-4)GlcNAc(b1-3)Gal(b1-4)GlcNAc(b1-2)Man(a1-3)]Man(b1-4)GlcNAc(b1-4)[Fuc(a1-6)]GlcNAc", "method_in_brief": "as §1"}, "[4]": {"target": "Gal(b1-4)GlcNAc(b1-3)Gal(b1-4)GlcNAc(b1-3)Gal(b1-4)GlcNAc", "method_in_brief": "as §1"}, "[5]": {"target": "Gal(b1-4)GlcNAc(b1-3)Gal(b1-4)GlcNAc(b1-3)Gal(b1-4)GlcNAc(b1-2)Man(a1-3)[Gal(b1-4)GlcNAc(b1-3)Gal(b1-4)GlcNAc(b1-3)Gal(b1-4)GlcNAc(b1-2)Man(a1-6)]Man(b1-4)GlcNAc(b1-4)GlcNAc", "method_in_brief": "as §1"}, "[6]": {"target": "Gal(b1-4)GlcNAc(b1-3)Gal(b1-4)GlcNAc(b1-3)Gal(b1-4)GlcNAc(b1-2)Man(a1-3)[Gal(b1-4)GlcNAc(b1-3)Gal(b1-4)GlcNAc(b1-3)Gal(b1-4)GlcNAc(b1-2)Man(a1-6)]Man(b1-4)GlcNAc(b1-4)[Fuc(a1-6)]GlcNAc", "method_in_brief": "as §1"}, "[7]": {"target": "Gal(b1-4)GlcNAc(b1-3)Gal(b1-4)GlcNAc(b1-3)Gal(b1-4)GlcNAc(b1-2)[Gal(b1-4)GlcNAc(b1-3)Gal(b1-4)GlcNAc(b1-3)Gal(b1-4)GlcNAc(b1-6)]Man(a1-6)[Gal(b1-4)GlcNAc(b1-3)Gal(b1-4)GlcNAc(b1-3)Gal(b1-4)GlcNAc(b1-2)Man(a1-3)]Man(b1-4)GlcNAc(b1-4)[Fuc(a1-6)]GlcNAc", "method_in_brief": "as §1"}, "[8]": {"target": "Gal(b1-4)GlcNAc(b1-3)Gal(b1-4)GlcNAc(b1-3)Gal(b1-4)GlcNAc(b1-3)Gal(b1-4)GlcNAc(b1-2)Man(a1-3)[Gal(b1-4)GlcNAc(b1-3)Gal(b1-4)GlcNAc(b1-3)Gal(b1-4)GlcNAc(b1-3)Gal(b1-4)GlcNAc(b1-2)Man(a1-6)]Man(b1-4)GlcNAc(b1-4)GlcNAc", "method_in_brief": "as §1"}, "[9]": {"target": "Gal(b1-4)GlcNAc(b1-3)Gal(b1-4)GlcNAc(b1-3)Gal(b1-4)GlcNAc(b1-3)Gal(b1-4)GlcNAc(b1-2)Man(a1-3)[Gal(b1-4)GlcNAc(b1-3)Gal(b1-4)GlcNAc(b1-3)Gal(b1-4)GlcNAc(b1-3)Gal(b1-4)GlcNAc(b1-2)Man(a1-6)]Man(b1-4)GlcNAc(b1-4)[Fuc(a1-6)]GlcNAc", "method_in_brief": "as §1"}, "[10]": {"target": "Gal(b1-4)GlcNAc(b1-3)Gal(b1-4)GlcNAc(b1-3)Gal(b1-4)GlcNAc(b1-3)Gal(b1-4)GlcNAc(b1-2)[Gal(b1-4)GlcNAc(b1-3)Gal(b1-4)GlcNAc(b1-3)Gal(b1-4)GlcNAc(b1-3)Gal(b1-4)GlcNAc(b1-6)]Man(a1-6)[Gal(b1-4)GlcNAc(b1-3)Gal(b1-4)GlcNAc(b1-3)Gal(b1-4)GlcNAc(b1-3)Gal(b1-4)GlcNAc(b1-2)Man(a1-3)]Man(b1-4)GlcNAc(b1-4)[Fuc(a1-6)]GlcNAc", "method_in_brief": "as §1"}, "[11]": {"target": "Gal(b1-4)GlcNAc(b1-3)Gal(b1-4)GlcNAc(b1-3)Gal(b1-4)GlcNAc(b1-3)Gal(b1-4)GlcNAc(b1-3)Gal(b1-4)GlcNAc(b1-2)Man(a1-3)[Gal(b1-4)GlcNAc(b1-3)Gal(b1-4)GlcNAc(b1-3)Gal(b1-4)GlcNAc(b1-3)Gal(b1-4)GlcNAc(b1-3)Gal(b1-4)GlcNAc(b1-2)Man(a1-6)]Man(b1-4)GlcNAc(b1-4)GlcNAc", "method_in_brief": "as §1"}, "[12]": {"target": "Gal(b1-4)GlcNAc(b1-3)Gal(b1-4)GlcNAc(b1-3)Gal(b1-4)GlcNAc(b1-3)Gal(b1-4)GlcNAc(b1-3)Gal(b1-4)GlcNAc(b1-2)Man(a1-3)[Gal(b1-4)GlcNAc(b1-3)Gal(b1-4)GlcNAc(b1-3)Gal(b1-4)GlcNAc(b1-3)Gal(b1-4)GlcNAc(b1-3)Gal(b1-4)GlcNAc(b1-2)Man(a1-6)]Man(b1-4)GlcNAc(b1-4)[Fuc(a1-6)]GlcNAc", "method_in_brief": "as §1"}, "[13]": {"target": "Gal(b1-4)GlcNAc(b1-3)Gal(b1-4)GlcNAc(b1-3)Gal(b1-4)GlcNAc(b1-3)Gal(b1-4)GlcNAc(b1-3)Gal(b1-4)GlcNAc(b1-2)[Gal(b1-4)GlcNAc(b1-3)Gal(b1-4)GlcNAc(b1-3)Gal(b1-4)GlcNAc(b1-3)Gal(b1-4)GlcNAc(b1-3)Gal(b1-4)GlcNAc(b1-6)]Man(a1-6)[Gal(b1-4)GlcNAc(b1-3)Gal(b1-4)GlcNAc(b1-3)Gal(b1-4)GlcNAc(b1-3)Gal(b1-4)GlcNAc(b1-3)Gal(b1-4)GlcNAc(b1-2)Man(a1-3)]Man(b1-4)GlcNAc(b1-4)[Fuc(a1-6)]GlcNAc", "method_in_brief": "as §1"}, "[14]": {"target": "Gal(b1-4)GlcNAc(b1-3)Gal(b1-4)GlcNAc(b1-3)Gal(b1-4)GlcNAc(b1-3)Gal(b1-4)GlcNAc(b1-3)Gal(b1-4)GlcNAc(b1-3)Gal(b1-4)GlcNAc(b1-2)Man(a1-3)[Gal(b1-4)GlcNAc(b1-3)Gal(b1-4)GlcNAc(b1-3)Gal(b1-4)GlcNAc(b1-3)Gal(b1-4)GlcNAc(b1-3)Gal(b1-4)GlcNAc(b1-3)Gal(b1-4)GlcNAc(b1-2)Man(a1-6)]Man(b1-4)GlcNAc(b1-4)GlcNAc", "method_in_brief": "as §1"}, "[15]": {"target": "Gal(b1-4)GlcNAc(b1-3)Gal(b1-4)GlcNAc(b1-3)GalNAc", "method_in_brief": "as §1"}, "[16]": {"target": "Gal(b1-4)GlcNAc(b1-3)Gal(b1-4)GlcNAc(b1-3)[Gal(b1-4)GlcNAc(b1-3)Gal(b1-4)GlcNAc(b1-6)]GalNAc", "method_in_brief": "as §1"}, "[17]": {"target": "Gal(b1-4)GlcNAc(b1-3)Gal(b1-4)GlcNAc(b1-6)[Gal(b1-3)]GalNAc", "method_in_brief": "as §1"}, "[18]": {"target": "Gal(b1-4)GlcNAc(b1-3)Gal(b1-4)[Fuc(a1-3)GlcNAc(b1-6)]Gal(b1-4)Glc", "method_in_brief": "as §1"}, "[19]": {"target": "Gal(b1-4)GlcNAc(b1-3)Gal(b1-4)[Fuc(a1-3)]GlcNAc(b1-3)Gal(b1-4)[Fuc(a1-3)]GlcNAc", "method_in_brief": "as §1"}},
  "note": "The list shows a part of the results.",
  "data": [
    {"binder": "Flo1 (Saccharomyces cerevisiae), P32768 (protein) SGATEACLPAGQRKSGMNINFYQYSLKDSSTYSNAAYMAYGYASKTKLGSVGGQTDISIDYNIPCVSSSGTFPCPQEDSYGNWGCKGMGACSNSQGIAYWSTDLFGFYTTPTNVTLEMTGYFLPPQTGSYTFKFATVDDSAILSVGGATAFNCCAQQQPPITSTNFTIDGIKPWGGSLPPNIEGTVYMYAGYYYPMKVVYSNAVSWGTLPISVTLPDGTTVSDDFEGYVYSFDDDLSQSNCTVPDPSNY", "values": [
      {"measurement": "glycan array binding signal (z-score)", "setting": "[1]", "value": 8.23},
      {"measurement": "glycan array binding signal (z-score)", "setting": "[2]", "value": -0.252},
      {"measurement": "glycan array binding signal (z-score)", "setting": "[3]", "value": 0.387},
      {"measurement": "glycan array binding signal (z-score)", "setting": "[4]", "value": -0.021},
      {"measurement": "glycan array binding signal (z-score)", "setting": "[5]", "value": 0.163},
      {"measurement": "glycan array binding signal (z-score)", "setting": "[6]", "value": -0.339},
      {"measurement": "glycan array binding signal (z-score)", "setting": "[7]", "value": 0.302},
      {"measurement": "glycan array binding signal (z-score)", "setting": "[8]", "value": 0.181},
      {"measurement": "glycan array binding signal (z-score)", "setting": "[9]", "value": 0.264},
      {"measurement": "glycan array binding signal (z-score)", "setting": "[10]", "value": 1.44},
      {"measurement": "glycan array binding signal (z-score)", "setting": "[11]", "value": 0.035},
      {"measurement": "glycan array binding signal (z-score)", "setting": "[12]", "value": -0.23},
      {"measurement": "glycan array binding signal (z-score)", "setting": "[13]", "value": 0.006},
      {"measurement": "glycan array binding signal (z-score)", "setting": "[14]", "value": 0.026},
      {"measurement": "glycan array binding signal (z-score)", "setting": "[15]", "value": -0.627},
      {"measurement": "glycan array binding signal (z-score)", "setting": "[16]", "value": -0.342},
      {"measurement": "glycan array binding signal (z-score)", "setting": "[17]", "value": -0.496},
      {"measurement": "glycan array binding signal (z-score)", "setting": "[18]", "value": -0.778},
      {"measurement": "glycan array binding signal (z-score)", "setting": "[19]", "value": -0.079}
    ]}
  ]
}
